For two molecules, binding results are on record in PMC6355839, “Functional role of PGAM5 multimeric assemblies and their polymerization into filaments” (Nature Communications, 2019).

These are yes or no findings as the source states them, for the method shown. Some entries that bind do so weakly or less than the wild type.

One assay deals with ∆48 PGAM5 F244E (UniProt Q96HS1). Nature of the assay: SEC; Superose 6 10/300 GL Increase; 20 mM Tris-Cl pH 8.0, 150 mM NaCl, 0.5 mM TCEP; salt titration up to 1 M NaCl; both purified. (In general: Size exclusion chromatography separates by hydrodynamic size, large species first.)
The target in assay [1] is endogenous cleaved PGAM5 (after CCCP treatment) (human (endogenous in HEK293T)) (UniProt Q96HS1). Nature of the assay: native gel or EMSA; BN-PAGE, 4–16% native-PAGE gel, mitochondrial and cytoplasmic fractions of HEK293T cells untreated or 4 h after 50 µM CCCP, immunoblot with anti-PGAM5. (In EMSA bound probe runs differently from free probe, usually more slowly.)

B1: ∆48 PGAM5 F244E (domain or fragment, UniProt Q96HS1 49-289)
chain: GGARPGPGVWDPNWDRREPLSLINVRKRNVESGEEELASKLDHYKAKATRHIFLIRHSQYHVDGSLEKDRTLTPLGREQAELTGLRLASLGLKFNKIVHSSMTRAIETTDIISRHLPGVCKVSTDLLREGAPIEPDPPVSHWKPEAVQYYEDGARIEAAFRNYIHRADARQEEDSYEIFICHANVIRYIVCRALQEPPEGWLRLSLNNGSITHLVIRPNGRVALRTLGDTGFMPPDKITRS
As for B1, the binding result in the assay with ∆48 PGAM5 F244E is given as “no binding”.

B2: endogenous cleaved PGAM5 (after CCCP treatment) (protein, UniProt Q96HS1 25-289)
chain: AVAVGKPRAGGDAEPRPAEPPAWAGGARPGPGVWDPNWDRREPLSLINVRKRNVESGEEELASKLDHYKAKATRHIFLIRHSQYHVDGSLEKDRTLTPLGREQAELTGLRLASLGLKFNKIVHSSMTRAIETTDIISRHLPGVCKVSTDLLREGAPIEPDPPVSHWKPEAVQYYEDGARIEAAFRNYIHRADARQEEDSYEIFICHANVIRYIVCRALQFPPEGWLRLSLNNGSITHLVIRPNGRVALRTLGDTGFMPPDKITRS
Take B2: the binding result in assay [1] is listed as “binds”.
